Data as given in PubChem BioAssay AID743454 (Peter MacCallum Cancer Centre, 2014).
Test: 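Genes whose loss kills vorinostat-resistant colon cancer cells under vorinostat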 (primary screen). Cell system: human HCT116-VR colon cancer cells, selected for vorinostat resistance. Reagents: siRNA pool against human genes, 40 nM siRNA pool. Time to read-out: vorinostat for 24 h, read-out about 72 h after transfection. Conditions: vorinostat at 2.5 µM final. Detection: 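Cell viability by CellTiter-Fluor and caspase 3/7 activity by luminescence, each scaled to mock wells per plate, duplicates averaged, then robust z-scored over all plates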. Direction: viability robust z-score: higher = more viable cells than screen typical; caspase robust z-score: higher = more caspase 3/7 activity than screen typical. Hit rule: 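Hits are knock-downs in viability class RV1/RV2 or caspase class CA1/CA2, excluding ones that killed cells in the no-drug cell-count arm; hits then retested with single siRNAs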.
The deposit covers about 18,000 reagents; shown is a random part of them. In the full data, 450 (2.5%) are marked active. 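Single biological run; no consistent viability z cut-off exists, so the class columns, not z-scores, define the calls.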 Unmarked entries are inactive. Reagent sequences are not shown.

What is on record for PIN4 (peptidylprolyl cis/trans isomerase, NIMA-interacting 4)?
viability hit class: no change; caspase hit class: no change; viability robust z-score: 0.12; caspase robust z-score: -1.1

Which result is listed for MYO1F (myosin IF)?
viability hit class: no change; caspase hit class: no change; viability robust z-score: 0.42; caspase robust z-score: 0.53

How did the screen score ILDR1 (immunoglobulin like domain containing receptor 1)?
viability hit class: no change; caspase hit class: no change; viability robust z-score: -0.36; caspase robust z-score: 0.4

With GPRASP3, what was measured?
viability hit class: no change; caspase hit class: no change; viability robust z-score: -1.52; caspase robust z-score: -1.4

With NLRP12 (NLR family pyrin domain containing 12), what does the deposit list?
viability hit class: no change; caspase hit class: no change; viability robust z-score: -0.44; caspase robust z-score: 1.33

What is on record for TUT4 (terminal uridylyl transferase 4)?
viability hit class: no change; caspase hit class: no change; viability robust z-score: 0.62; caspase robust z-score: -0.4

With CHCT1 (CHD1 helical C-terminal domain containing 1), how do the results read?
viability hit class: no change; caspase hit class: no change; viability robust z-score: -0.05; caspase robust z-score: -1.31

How did the screen score TMSB4X (thymosin beta 4 X-linked)?
viability hit class: no change; caspase hit class: no change; viability robust z-score: -0.42; caspase robust z-score: -0.86

For MAGEC3 (MAGE family member C3), what does the deposit list?
viability hit class: no change; caspase hit class: no change; viability robust z-score: -1.58; caspase robust z-score: 0.13

Which result is listed for MCTS1 (MCTS1 re-initiation and release factor)?
viability hit class: no change; caspase hit class: no change; viability robust z-score: 0.84; caspase robust z-score: -0.04

For HBP1 (HMG-box transcription factor 1), what does the deposit list?
viability hit class: no change; caspase hit class: no change; viability robust z-score: -1.8; caspase robust z-score: -0.78

How did the screen score MSANTD2 (Myb/SANT DNA binding domain containing 2)?
viability hit class: no change; caspase hit class: no change; viability robust z-score: 0.2; caspase robust z-score: -0.04

How did the screen score SPTY2D1 (SPT2 chromatin protein domain containing 1)?
viability hit class: no change; caspase hit class: no change; viability robust z-score: 0.14; caspase robust z-score: -1.01

For RPH3A (rabphilin 3A), what does the deposit list?
viability hit class: no change; caspase hit class: no change; viability robust z-score: -1.17; caspase robust z-score: 1.41

What did the screen give for GPD1L (glycerol-3-phosphate dehydrogenase 1 like)?
viability hit class: no change; caspase hit class: no change; viability robust z-score: 0.18; caspase robust z-score: 0.44

For MEIS3 (Meis homeobox 3), what was measured?
viability hit class: no change; caspase hit class: no change; viability robust z-score: 0.64; caspase robust z-score: 2.58

With TRIO (trio Rho guanine nucleotide exchange factor), what does the deposit list?
viability hit class: no change; caspase hit class: no change; viability robust z-score: 2.92; caspase robust z-score: 0.15

With ALB (albumin), what does the deposit list?
viability hit class: no change; caspase hit class: no change; viability robust z-score: -0.11; caspase robust z-score: 1.7

How did the screen score AKAP8L (A-kinase anchoring protein 8 like)?
viability hit class: no change; caspase hit class: no change; viability robust z-score: -0.16; caspase robust z-score: 1

Which result is listed for QRICH1 (glutamine rich 1)?
viability hit class: no change; caspase hit class: no change; viability robust z-score: -0.09; caspase robust z-score: -0.19

What is on record for RBM39 (RNA binding motif protein 39)?
viability hit class: no change; caspase hit class: no change; viability robust z-score: -2.78; caspase robust z-score: 4.91

Look-ups from above:
Value of CHCT1 (CHD1 helical C-terminal domain containing 1) under “caspase robust z-score”: -1.31
QRICH1 (glutamine rich 1), caspase robust z-score: -0.19
Value of TUT4 (terminal uridylyl transferase 4) under “caspase hit class”: no change
